Data as given in PubChem BioAssay AID1259331 (Drosophila RNAi Screening Center, 2017).
The whole screen tested about 3,100 reagents; this is an unselected part. Of all reagents, 126 (4.1%) are marked active. 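Calls are per reagent; zinc was so toxic that few knock-downs lowered ATP further, so most hits raise ATP.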 Raw values vary from plate to plate and are shown uncorrected. Names joined by + are all predicted targets of the reagent. No sequences are given here. The record does not give: the amount of reagent.

Screen: 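Fly transmembrane-protein genes that affect zinc toxicity in cultured cells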 (primary screen)
System: Drosophila S2R+ cells
Reagents: long dsRNA against Drosophila genes
Duration: 5 days (4 days knock-down, then 1 day zinc)
Treatment: zinc chloride at 15 mM final level for 1 day
Detection: 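Luminescent ATP assay standing in for viability; Z score is the mean over three replicate plates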
Direction: mean Z score: higher = more ATP than other wells, better survival under zinc; ATP luminescence: higher = more ATP, more viable cells
Rule for the call: 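a reagent is called a hit when its Z score is above 1.5 or below -1.5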
Meaning of the calls: active = hit, ATP up or down; inactive = not a hit

{"gene": "Gr22a (Gustatory receptor 22a)", "dsRNA": "DRSC26809", "mean Z score": 0.168, "ATP luminescence, replicate 1": 63204, "ATP luminescence, replicate 2": 61284, "activity call": "inactive"}
{"gene": "nrv1 (nervana 1)", "dsRNA": "DRSC03382", "mean Z score": 0.505, "ATP luminescence, replicate 1": 62484, "ATP luminescence, replicate 2": 64250, "activity call": "inactive"}
{"gene": "Nckx30C", "dsRNA": "DRSC02686", "mean Z score": -0.53, "ATP luminescence, replicate 1": 42388, "ATP luminescence, replicate 2": 38016, "activity call": "inactive"}
{"gene": "Nckx30C", "dsRNA": "DRSC02687", "mean Z score": -0.203, "ATP luminescence, replicate 1": 48972, "ATP luminescence, replicate 2": 41223, "activity call": "inactive"}
{"gene": "Nckx30C", "dsRNA": "DRSC02688", "mean Z score": -0.513, "ATP luminescence, replicate 1": 69996, "ATP luminescence, replicate 2": 49726, "activity call": "inactive"}
{"gene": "CG13869 + CG11099", "dsRNA": "DRSC24218", "mean Z score": -0.322, "ATP luminescence, replicate 1": 53516, "ATP luminescence, replicate 2": 51098, "activity call": "inactive"}
{"gene": "Tmem63 (Transmembrane protein 63)", "dsRNA": "DRSC06063", "mean Z score": 0.0228, "ATP luminescence, replicate 1": 73632, "ATP luminescence, replicate 2": 72448, "activity call": "inactive"}
{"gene": "Tmem63 (Transmembrane protein 63)", "dsRNA": "DRSC27402", "mean Z score": 0.349, "ATP luminescence, replicate 1": 66320, "ATP luminescence, replicate 2": 63719, "activity call": "inactive"}
{"gene": "PGRP-SC1a (Peptidoglycan recognition protein SC1a)", "dsRNA": "DRSC06482", "mean Z score": 0.245, "ATP luminescence, replicate 1": 76633, "ATP luminescence, replicate 2": 79172, "activity call": "inactive"}
{"gene": "CG2003", "dsRNA": "DRSC15411", "mean Z score": 0.26, "ATP luminescence, replicate 1": 70116, "ATP luminescence, replicate 2": 70599, "activity call": "inactive"}
{"gene": "CG2003", "dsRNA": "DRSC39782", "mean Z score": -0.0132, "ATP luminescence, replicate 1": 52255, "ATP luminescence, replicate 2": 60049, "activity call": "inactive"}
{"gene": "Fur1 (Furin 1)", "dsRNA": "DRSC13707", "mean Z score": -0.385, "ATP luminescence, replicate 1": 69138, "ATP luminescence, replicate 2": 58660, "activity call": "inactive"}
{"gene": "Fur1 (Furin 1)", "dsRNA": "DRSC16676", "mean Z score": 2.26, "ATP luminescence, replicate 1": 74185, "ATP luminescence, replicate 2": 75261, "activity call": "active"}
{"gene": "CG9416", "dsRNA": "DRSC07339", "mean Z score": -0.134, "ATP luminescence, replicate 1": 68208, "ATP luminescence, replicate 2": 67221, "activity call": "inactive"}
{"gene": "CG33181", "dsRNA": "DRSC17971", "mean Z score": -0.541, "ATP luminescence, replicate 1": 52830, "ATP luminescence, replicate 2": 61421, "activity call": "inactive"}
{"gene": "CG33181", "dsRNA": "DRSC29457", "mean Z score": -0.251, "ATP luminescence, replicate 1": 59963, "ATP luminescence, replicate 2": 55042, "activity call": "inactive"}
